For the assay, the target named is T1, TtSlyD-FKBP-Her3.
T1 sequence: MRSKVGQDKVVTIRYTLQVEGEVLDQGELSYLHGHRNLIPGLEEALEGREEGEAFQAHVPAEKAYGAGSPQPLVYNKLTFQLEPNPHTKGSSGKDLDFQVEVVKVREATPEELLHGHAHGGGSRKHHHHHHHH
As to the kind of experiment: SPR Biacore 4000 kinetic screening.

No constants are given. Whether binding was seen depends on the method and setting. Some entries that bind do so weakly or less than the wild type.

These results are taken from patent US20140186354A1 (published 2014).

B1: anti-HER3/HER4 antibody M-05-74 (antibody, V domains shown)
VH: QVQLQQSGAELAKPGASVKMSCKTSGYTLTDYWIHWVKQRPGQGLEWIGYINPYTGYTESNQKFKDKATLTADKSSNTAYIQLSSLTSEDSAVYYCARPYYYGDYWGQGTTLTVSS
VL: QIVLTQSPAIMSASPGERVTITCSASSSVSYMHWFQQKPGTSPKLLIYSTSNLASGVPARFSGSGSGTSYSLTISRMEAEDAATYYCQQRSSYPFTFGSGTKLEIK
notes: Murine monoclonal antibody from hybridoma (supernatant or purified full length); also called M-074; M-5-74
For B1, the binding result is “binds”.
